Laboratory results: PMC4728560, “TCTP contains a BH3-like domain, which instead of inhibiting, activates Bcl-xL” (Scientific Reports, 2016)
These are yes or no findings as the source states them, for the method shown. In cells and extracts the contact can be indirect. Some results given as binding are weak or reduced against the parent protein; the word gives no strength. Tags and fused reporters may be left off the sequences shown. Each block holds one binder with its values, some of them ahead of it.

Protein sequences, listed by entry. Tags and fused reporters are not part of them.
UniProt Q07817: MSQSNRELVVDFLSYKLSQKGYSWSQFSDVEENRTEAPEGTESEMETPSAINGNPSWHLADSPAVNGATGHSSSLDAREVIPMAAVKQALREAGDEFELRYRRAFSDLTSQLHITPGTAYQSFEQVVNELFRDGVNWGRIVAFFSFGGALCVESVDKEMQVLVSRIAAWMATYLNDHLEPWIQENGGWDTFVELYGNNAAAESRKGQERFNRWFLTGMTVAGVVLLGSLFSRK
UniProt Q07812: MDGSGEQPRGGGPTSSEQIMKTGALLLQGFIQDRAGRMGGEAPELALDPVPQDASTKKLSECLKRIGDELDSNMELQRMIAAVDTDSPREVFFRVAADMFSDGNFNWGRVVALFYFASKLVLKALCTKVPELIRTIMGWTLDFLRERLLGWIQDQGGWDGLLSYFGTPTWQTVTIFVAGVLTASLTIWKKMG

Tests used:
Assay in all cases: FRET or BRET; BRET in transiently transfected cells; Luciferase-fused TCTP as donor, increasing levels of YFP-fused acceptor; also with ABT-737 treatment of the cells (signals significantly inhibited)
[1] = molecular target: YFP-fused Bcl-xL (BRET acceptor) (human), Q07817; settings: remark: other sources report otherwise
[2] = molecular target: YFP-fused Bcl-xL (BRET acceptor) (human) (UniProt Q07817)
[3] = molecular target: YFP-fused BAX (BRET acceptor) (UniProt Q07812)

- binding [1]: binds
B1: Luciferase-fused TCTP (BRET donor), P13693 1-172 (protein)
chain: MIIYRDLISHDEMFSDIYKIREIADGLCLEVEGKMVSRTEGNIDDSLIGGNASAEGPEGEGTESTVITGVDIVMNHHLQETSFTKEAYKKYIKDYMKSIKGKLEEQRPERVKPFMTGAAEQIKHILANFKNYQFFIGENMNPDGMVALLDYREDGVTPYMIFFKDGLEMEKC

- binding [2]: no binding
B2: Luciferase-fused TCTP R21A (BRET donor) (protein, UniProt P13693 1-172)
chain: MIIYRDLISHDEMFSDIYKIAEIADGLCLEVEGKMVSRTEGNIDDSLIGGNASAEGPEGEGTESTVITGVDIVMNHHLQETSFTKEAYKKYIKDYMKSIKGKLEEQRPERVKPFMTGAAEQIKHILANFKNYQFFIGENMNPDGMVALLDYREDGVTPYMIFFKDGLEMEKC

- binding [3]: no binding
B3: Luciferase-fused TCTP (BRET donor) (protein, UniProt P13693 1-172)
chain: MIIYRDLISHDEMFSDIYKIREIADGLCLEVEGKMVSRTEGNIDDSLIGGNASAEGPEGEGTESTVITGVDIVMNHHLQETSFTKEAYKKYIKDYMKSIKGKLEEQRPERVKPFMTGAAEQIKHILANFKNYQFFIGENMNPDGMVALLDYREDGVTPYMIFFKDGLEMEKC
